The target of assay [1] is receptor-interacting protein kinase 3 (human (endogenous in LO2)) (UniProt Q9Y572). Description: co-IP; LO2 cell lysates incubated with anti-RIPK1 or anti-RIPK3 antibody, protein G-agarose beads overnight, western blot; cells treated with LPS + D-Gal for 4 h, then with YQJPF or atractylone, in Figure 8F also pre-treated with 50 uM Nec-1. A general note: Immunoblotting shows a protein as a band on a membrane.

Chains of the proteins cited; added tags and fusions are not shown.
UniProt Q9Y572: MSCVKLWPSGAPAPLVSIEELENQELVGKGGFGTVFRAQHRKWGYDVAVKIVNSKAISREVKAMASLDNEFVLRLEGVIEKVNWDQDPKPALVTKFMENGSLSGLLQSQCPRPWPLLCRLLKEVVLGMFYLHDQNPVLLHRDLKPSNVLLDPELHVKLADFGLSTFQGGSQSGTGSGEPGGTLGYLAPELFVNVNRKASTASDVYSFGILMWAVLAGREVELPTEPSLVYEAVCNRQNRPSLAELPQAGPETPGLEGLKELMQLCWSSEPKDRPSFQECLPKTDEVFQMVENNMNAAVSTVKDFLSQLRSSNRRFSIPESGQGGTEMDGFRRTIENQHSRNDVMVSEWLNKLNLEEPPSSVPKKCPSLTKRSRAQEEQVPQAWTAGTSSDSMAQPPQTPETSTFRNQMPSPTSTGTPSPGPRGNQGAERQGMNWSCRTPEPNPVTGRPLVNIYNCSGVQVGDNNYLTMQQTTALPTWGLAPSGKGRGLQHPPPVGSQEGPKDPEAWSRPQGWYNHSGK
UniProt Q13546: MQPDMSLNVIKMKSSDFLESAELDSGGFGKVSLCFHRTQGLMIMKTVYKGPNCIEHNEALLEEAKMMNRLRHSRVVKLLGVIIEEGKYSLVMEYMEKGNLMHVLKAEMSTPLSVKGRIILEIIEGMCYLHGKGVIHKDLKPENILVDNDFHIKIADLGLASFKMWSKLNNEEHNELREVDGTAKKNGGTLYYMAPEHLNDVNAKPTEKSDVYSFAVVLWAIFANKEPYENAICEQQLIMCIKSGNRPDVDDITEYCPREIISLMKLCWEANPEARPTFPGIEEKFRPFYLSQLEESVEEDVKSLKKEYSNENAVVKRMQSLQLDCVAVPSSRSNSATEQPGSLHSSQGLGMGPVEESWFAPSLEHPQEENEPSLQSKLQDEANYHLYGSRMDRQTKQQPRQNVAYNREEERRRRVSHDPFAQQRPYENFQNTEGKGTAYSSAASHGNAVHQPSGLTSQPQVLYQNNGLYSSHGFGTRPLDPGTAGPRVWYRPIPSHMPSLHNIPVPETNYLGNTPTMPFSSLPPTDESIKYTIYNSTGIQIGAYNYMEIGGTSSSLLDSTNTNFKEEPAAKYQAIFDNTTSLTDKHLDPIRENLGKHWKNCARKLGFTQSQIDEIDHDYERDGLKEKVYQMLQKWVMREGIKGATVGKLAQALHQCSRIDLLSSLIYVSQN

In assay [2] the target is receptor-interacting protein kinase 1 (human (endogenous in LO2)) (UniProt Q13546). The assay is described as above.

Data on two substances can be found in article PMC8102982.

Results are given in words; binding and its absence hold for the method and conditions named. In cells and extracts the contact can be indirect. Some entries that bind do so weakly or less than the wild type.

For the substance “receptor-interacting protein kinase 1 (from UniProt Q13546 1-671)”, the binding result in assay [1] is recorded as “binds”.
Turning to “receptor-interacting protein kinase 3 (from UniProt Q9Y572 1-518)”, the binding result in assay [2] is listed as “binds”.
